Test results taken from US12577231B2, “Androgen receptor PROTACS” (GlaxoSmithKline Intellectual Property Development Limited, priority 2023, dated 2026).
Some results were stated once for a whole list of compounds, not compound by compound.

Molecular target: T1, Androgen Receptor, LNCaP (AR T878A) (Homo sapiens, UniProt P10275, T878A)
T1 construct: endogenous in cells; host or cells: LNCaP
T1 sequence (P10275 1-920 T878A): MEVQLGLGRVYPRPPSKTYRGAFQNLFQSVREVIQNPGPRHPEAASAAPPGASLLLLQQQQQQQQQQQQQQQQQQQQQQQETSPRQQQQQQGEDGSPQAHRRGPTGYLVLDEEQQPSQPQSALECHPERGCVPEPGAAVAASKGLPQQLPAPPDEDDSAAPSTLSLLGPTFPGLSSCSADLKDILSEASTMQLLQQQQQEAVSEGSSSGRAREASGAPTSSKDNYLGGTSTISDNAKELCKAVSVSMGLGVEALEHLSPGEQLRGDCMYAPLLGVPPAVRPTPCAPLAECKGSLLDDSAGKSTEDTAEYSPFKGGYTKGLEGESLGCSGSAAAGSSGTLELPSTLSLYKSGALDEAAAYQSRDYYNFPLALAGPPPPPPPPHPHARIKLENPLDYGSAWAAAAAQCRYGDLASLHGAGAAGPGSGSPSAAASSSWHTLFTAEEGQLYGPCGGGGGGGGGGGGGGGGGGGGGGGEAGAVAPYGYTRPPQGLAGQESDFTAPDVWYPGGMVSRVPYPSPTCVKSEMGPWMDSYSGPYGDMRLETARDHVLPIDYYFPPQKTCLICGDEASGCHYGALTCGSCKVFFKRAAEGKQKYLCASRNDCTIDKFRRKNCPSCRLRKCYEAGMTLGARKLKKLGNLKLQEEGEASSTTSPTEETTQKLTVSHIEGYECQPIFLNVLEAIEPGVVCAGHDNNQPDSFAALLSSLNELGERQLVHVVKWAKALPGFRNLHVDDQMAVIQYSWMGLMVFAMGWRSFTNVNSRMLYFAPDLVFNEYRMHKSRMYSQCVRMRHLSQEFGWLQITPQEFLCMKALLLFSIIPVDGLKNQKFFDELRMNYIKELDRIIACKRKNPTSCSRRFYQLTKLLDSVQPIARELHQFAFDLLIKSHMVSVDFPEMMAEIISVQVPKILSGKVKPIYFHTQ
Assay: Androgen Receptor Degradation-Imaging Assay, LNCaP cell line
Assay type: cell-based
Details: 16 hours treatment, immunofluorescence
Description: Degradation of Androgen Receptor (AR) protein in human prostate cancer cell lines (MDA-PCa-2b (AR T878A/L702H), LNCaP (AR T878A), VCaP (AR wild type and amplified) 22RV1 (AR H875Y) and PC3 (AR negative control)) treated with AR PROTACs was quantified using immunofluorescence. Prostate cancer cells were plated (MDA-PCa-2b, and VCaP 16,000 cells/well; LNCaP and 22RV1 32,000 cells/well, and PC3 8,000 cells/well) in an optical bottom 96-well cell culture plate and allowed to attach overnight. The prostate cancer cell lines were treated for 16 hours with a 10-point 3-fold dilution series (dose range=0.02 nM to 333 nM). PC3 is included as an AR negative control and not treated with compound. Cells are fixed and permeabilized with 4% formaldehyde, blocked with 10% goat serum in immunofluorescence (IF) buffer (130 mM NaCl, 7 mM Na2HPO4, 3.5 mM NaH2PO4, 7.7 mM NaN3, 0.1% BSA, 0.2% Triton X, 0.05% Tween 20) prior to overnight incubation with rabbit antibody specific for C terminus of AR (commercially available from RevMaB Biosciences). Following washes with IF buffer, cells were incubated with fluorescent secondary antibody (Goat anti-rabbit Alexa 647; commercially available from Invitrogen) and Hoechst nuclear stain (commercially available from Themo Scientific) prior to quantification of nuclear AR levels via Opera Phenix high-content fluorescent imager using a 40× water objective. Image analysis was performed with Harmony software.
The averaged nuclear Alexa 647 median fluorescence intensity (MFI) of PC3 cells is subtracted from the nuclear Alexa 647 MFI of PROTAC treated and DMSO control treated cells. % AR remaining is calculated for PROTAC treatments as a percent of the DMSO control (MFI PROTAC treated/MFI DMSO control treated)*100). DC50 and the Dmax values, were obtained from these normalised values fitted with a 4-parameter sigmoidal response curve (Xlfit software). The DC50 is the interpolated concentration of PROTAC corresponding to 50% of the protein being degraded, and the Dmax parameter is the maximum experimentally observed degradation.

Row | SMILES | pDC50
1 | CC1(C)[C@H](NC(=O)c2ccc(N3CCC(CN4CCC(n5ncc6c(N7CCC(=O)NC7=O)cccc65)CC4)CC3)c(F)c2)C(C)(C)[C@H]1Oc1ccc(C#N)c2c1CCCO2 [Example 8, N-((1r,3r)-3-((8-Cyanochroman-5-yl)oxy)-2,2,4,4-tetramethylcyclobutyl)-4-(4-((4-(4-(2,4-dioxotetrahydropyrimidin-1(2H)-yl)-1H-indazol-1-yl)piperidin-1-yl)methyl)piperidin-1-yl)-3-fluorobenzamide] | ≥ 8.0
2 | COc1cc(O[C@H]2C(C)(C)[C@H](NC(=O)c3ccc(N4CCC(CN5CCC(n6ncc7c(N8CCC(=O)NC8=O)cccc76)CC5)CC4)cc3)C2(C)C)ccc1C#N [Example 15, N-((1r,3r)-3-(4-Cyano-3-methoxyphenoxy)-2,2,4,4-tetramethylcyclobutyl)-4-(4-((4-(4-(2,4-dioxotetrahydropyrimidin-1(2H)-yl)-1H-indazol-1-yl)piperidin-1-yl)methyl)piperidin-1-yl)benzamide] | ≥ 8.0
3 | COc1cc(O[C@H]2C(C)(C)[C@H](NC(=O)c3ccc(N4CCC(CN5CCC(n6ccc7c(N8CCC(=O)NC8=O)cccc76)CC5)CC4)cc3)C2(C)C)ccc1C#N [Example 16, N-((1r,3r)-3-(4-Cyano-3-methoxyphenoxy)-2,2,4,4-tetramethylcyclobutyl)-4-(4-((4-(4-(2,4-dioxotetrahydropyrimidin-1(2H)-yl)-1H-indol-1-yl)piperidin-1-yl)methyl)piperidin-1-yl)benzamide] | ≥ 8.0
4 | CC1(C)[C@H](NC(=O)c2ccc(N3CCC(CN4CCC(n5ccc6c(N7CCC(=O)NC7=O)cc(F)cc65)CC4)CC3)c(F)c2)C(C)(C)[C@H]1Oc1ccc(C#N)c2ncccc12 [Example 32, N-((1r,3r)-3-((8-Cyanoquinolin-5-yl)oxy)-2,2,4,4-tetramethylcyclobutyl)-4-(4-((4-(4-(2,4-dioxotetrahydropyrimidin-1(2H)-yl)-6-fluoro-1H-indol-1-yl)piperidin-1-yl)methyl)piperidin-1-yl)-3-fluorobenzamide] | ≥ 8.0
